Data taken from patent publication US20230059009A1, “INHIBITORS OF LIN28 AND METHODS OF USE THEREOF” (The Regents of the University of California, priority 2019, published 2023).

Columns and labels:
Format in all cases: cell-based
22RV1 [1] = test: Cell viability, CellTiter-Glo (CTG), 22RV1; settings: Homo sapiens, 22RV1 (Prostate), 96 hr
Procedure: (§1) To measure cell viability, cell titer glow (CTG, Promega CellTiter-Glo 2.0 Assay) and MTT assays (SigmaAldrich, Cell Proliferation Kit I) were performed. Briefly, cells were serum starved overnight prior to seeding in 96-well plates. Following 24 h incubation, cells were treated with increasing concentrations of JGJ compounds for 96 hr. At assay read-out, CellTiter-Glo reagent was added and luminescence was measured after 10-minutes incubation at room temperature. For the MTT assay, MTT labeling reagent was added and incubated for 4 h. Subsequently, medium was removed and 50 μL DMSO was added to solubilize the crystals, and absorbance was measured at 570 nm. Cell viability was calculated as (Sample-Background)/(Control-Background). Current standard of care drugs, Enzalutamide, Palbociclib and Cetuximab were used as comparative controls.

LNCaP = test: Cell viability, MTT assay, LNCaP; settings: Homo sapiens, LNCaP (Prostate)
Procedure: as §1

22RV1 [2] = test: Cell viability, MTT assay, 22RV1; settings: Homo sapiens, 22RV1 (Prostate), 96 hr
Procedure: as §1

IC50 (22RV1 [1]): 88 µM
IC50 (LNCaP): 5 µM
IC50 (22RV1 [2]): 53 µM
Compound: CNC(=O)c1ccc(N2C(=S)N(c3ccc(C#N)c(C(F)(F)F)c3)C(=O)C2(C)C)cc1F [Enzalutamide, reference compound]
